Reference: US6605722B2, “Tyrosine derivatives with anti-leukotrienen activity” (Rotta Research Laboratorium S.p.A., priority 2000, dated 2003)

tested on: contractions induced by LTD4 on isolated guinea-pig trachea; test: Antagonism of contractions induced by LTD4 on isolated guinea-pig trachea in vitro (Schild analysis); conditions: A′/A = agonist concentration ratio with and without antagonist; B = negative logarithm of antagonist concentration
Experimental: J. Physiol. Pharmacol. 67 (1989): 17-28], with slight modifications. […] The results were expressed as the effect as a percentage of the maximum contraction induced by 300 μM acetylcholine.

Question: For O=C(NC(Cc1ccc(OCc2ccc3ccc(F)cc3n2)cc1)C(=O)O)c1ccc2ccccc2n1 (racemic) [Compound 17, O-(7-fluoro-2-quinolinylmethyl)-N-quinaldoyl-D,L-tyrosine], which “Equations of the straight lines (Schild regression)” value (“Equations of the straight lines” below) is on record?
Answer: log (A′/A − 1) = 3.75 − 0.44B

Question: With O=C(NC(Cc1ccc(OCc2ccc3ccccc3n2)cc1)C(=O)O)c1ccc2ccccc2n1 (racemic) [Compound 1, O-(2-quinolinylmethyl)-N-quinaldoyl-D,L-tyrosine] as the molecule, how does the “Equations of the straight lines” value read?
Answer: log (A′/A − 1) = 9.78 − 1.24B

Question: Which “Equations of the straight lines” value does the source give for O=C(NC(Cc1ccc(OCc2ccc3ccc(F)cc3n2)cc1)C(=O)O)c1cc2ccccc2cn1 (stereo not drawn) [Compound 22] here?
Answer: log (A′/A − 1) = 5.2 − 0.59B
